Experimental data published in the supplement of paper PMC4604168 (melanoma cell lines).
Some of the results follow. Repeats are few or missing, and single values can be far off.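 Cells were imaged in 1,536-well plates, and nuclei stained with an antibody against cleaved PARP were counted against all DNA-stained nuclei to give the apoptosis fraction. Screening doses were chosen to leave most cells alive, and resting and induced cleaved-PARP levels differ strongly between cell lines.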

How the values were obtained:
Experiment in all cases: cleaved PARP positive nuclei fraction relative to DMSO control; melanoma cells; higher = more apoptosis
Conditions in all cases: library dose: low library concentration; 72 h
WM115 = system: WM115
WM1716 = system: WM1716
WM1745 = system: WM1745
WM3526 = system: WM3526
WM3619 = system: WM3619
WM451Lu = system: WM451Lu

Row | Structure (SMILES) | cleaved PARP positive nuclei fraction (WM115) | cleaved PARP positive nuclei fraction (WM1716) | cleaved PARP positive nuclei fraction (WM1745) | cleaved PARP positive nuclei fraction (WM3526) | cleaved PARP positive nuclei fraction (WM3619) | cleaved PARP positive nuclei fraction (WM451Lu)
1 | N.N.[Cl][Pt][Cl] [cisplatin] + O=C(O)C(=O)Nc1sc2c(c1C(=O)O)CCNC2 [TCS401] (first compound 1.6 µM, partner dose 1.66667 µM) | 111% | 107% | 282% | 86.5% | 107% | 42.6%
2 | C[C@@H](Oc1cc(-c2cnn(C3CCNCC3)c2)cnc1N)c1c(Cl)ccc(F)c1Cl [Crizotinib] + C/C(O)=C(\C#N)C(=O)Nc1cc(Br)ccc1Br [LFM-A13] (first compound 0.2 µM, partner dose 2 µM) | 93.3% | 69.3% | 85.6% | 72.9% | 83.6% | 165%
3 | CCCS(=O)(=O)Nc1ccc(F)c(C(=O)c2c[nH]c3ncc(Cl)cc23)c1F + C[As](C)SC[C@H](NC(=O)CC[C@H](N)C(=O)O)C(=O)NCC(=O)O [Darinaparsin] (first compound 0.08 µM, partner dose 0.4 µM) | 78% | 84.5% | 88% | 102% | 98.9% | 70.2%
4 | Nc1nc(F)nc2c1ncn2[C@@H]1O[C@H](CO)[C@@H](O)[C@@H]1O [fludarabine] + Cc1cc(SCc2sc(-c3ccc(C(F)(F)F)c(F)c3)nc2C)ccc1OCC(=O)O [GW0742] (first compound 0.2 µM, partner dose 2 µM) | 110% | 104% | 83.5% | 319% | 90.9% | 391%
5 | Cn1cc(C2=C(c3cn(C4CCN(Cc5ccccn5)CC4)c4ccccc34)C(=O)NC2=O)c2ccccc21 [Enzastaurin] + CN(C)S(=O)(=O)c1ccc2c(c1)/C(=C/c1cc3c([nH]1)CCCC3)C(=O)N2 [SU6656] (first compound 0.8 µM, partner dose 0.4 µM) | 96.2% | 52.5% | 95.6% | 183% | 82.8% | 45.3%
6 | C[C@]12O[C@H](C[C@]1(O)CO)n1c3ccccc3c3c4c(c5c6ccccc6n2c5c31)CNC4=O [Lestaurtinib] + Cc1cc(N2CCOCC2)cc2[nH]c(-c3c(NC[C@@H](O)c4cccc(Cl)c4)cc[nH]c3=O)nc12 [BMS536924] (first compound 0.004 µM, partner dose 0.2 µM) | 70.2% | 58.3% | 109% | 186% | 67.8% | 87.4%
7 | CCN(CC)CCNC(=O)c1c(C)[nH]c(/C=C2\C(=O)Nc3ccc(F)cc32)c1C [sunitinib] + N.N.[Cl][Pt][Cl] [cisplatin] (first compound 0.4 µM, partner dose 1.6 µM) | 58.1% | 114% | 97.5% | 121% | 77.4% | 88.3%
8 | O=C(/C=C/c1cccnc1)NCCCCC1CCN(C(=O)c2ccccc2)CC1 + C[As](C)SC[C@H](NC(=O)CC[C@H](N)C(=O)O)C(=O)NCC(=O)O [Darinaparsin] (first compound 0.01 µM, partner dose 0.4 µM) | 96.8% | 592% | 81.2% | 40.8% | 73.1% | 89.3%
9 | C[As](C)SC[C@H](NC(=O)CC[C@H](N)C(=O)O)C(=O)NCC(=O)O [Darinaparsin] + Cc1nc(Nc2ncc(C(=O)Nc3c(C)cccc3Cl)s2)cc(N2CCN(CCO)CC2)n1 [dasatanib] (first compound 0.4 µM, partner dose 0.004 µM) | 95.3% | 50.8% | 137% | 165% | 93.6% | 110%
10 | C[C@]12O[C@H](C[C@]1(O)CO)n1c3ccccc3c3c4c(c5c6ccccc6n2c5c31)CNC4=O [Lestaurtinib] + COc1cc(N2CCC(N3CCN(C)CC3)CC2)ccc1Nc1ncc(Cl)c(Nc2ccccc2S(=O)(=O)C(C)C)n1 [NVP-TAE684] (first compound 0.004 µM, partner dose 0.08 µM) | 251% | 225% | 103% | 99.4% | 123% | 55.3%
11 | C#Cc1cccc(Nc2ncnc3cc(OCCOC)c(OCCOC)cc23)c1 [erlotinib] + O=C(Oc1ccc([N+](=O)[O-])cc1)N1CCC(C(O)(c2ccc3c(c2)OCO3)c2ccc3c(c2)OCO3)CC1 [JZL184] (first compound 0.8 µM, partner dose 1 µM) | 69.8% | 50.7% | 117% | 78.3% | 97.8% | 80.6%
12 | C[As](C)SC[C@H](NC(=O)CC[C@H](N)C(=O)O)C(=O)NCC(=O)O [Darinaparsin] + OCCn1cc(-c2cnc3nnn(Cc4ccc5ncccc5c4)c3n2)cn1 [PF04217903] (first compound 0.4 µM, partner dose 1 µM) | 30.3% | 46.1% | 116% | 303% | 79.8% | 154%
13 | CC(C)(C)c1cnc(CSc2cnc(NC(=O)C3CCNCC3)s2)o1 + Cc1cc(SCc2sc(-c3ccc(C(F)(F)F)c(F)c3)nc2C)ccc1OCC(=O)O [GW0742] (first compound 0.01 µM, partner dose 2 µM) | 71.2% | 61.7% | 214% | 22.4% | 69.3% | 64.4%
14 | Cn1cc(C2=C(c3cn(C4CCN(Cc5ccccn5)CC4)c4ccccc34)C(=O)NC2=O)c2ccccc21 [Enzastaurin] + COc1ccc2c(c1)CCC1C2CCC2(C)C(NCCCCCCN3C(=O)C=CC3=O)CCC12 [U73122] (first compound 0.8 µM, partner dose 0.4 µM) | 112% | 207% | 88.1% | 134% | 86.7% | 51%
15 | N.N.[Cl][Pt][Cl] [cisplatin] + Cc1nc(Nc2ncc(C(=O)Nc3c(C)cccc3Cl)s2)cc(N2CCN(CCO)CC2)n1 [dasatanib] (first compound 1.6 µM, partner dose 0.004 µM) | 72.9% | 95.8% | 114% | 35.3% | 113% | 47.1%
16 | N#CC[C@H](C1CCCC1)n1cc(-c2ncnc3[nH]ccc23)cn1 [ruxolitinib] + C/C(O)=C(\C#N)C(=O)Nc1cc(Br)ccc1Br [LFM-A13] (first compound 1 µM, partner dose 2 µM) | 194% | 108% | 93.3% | 338% | 218% | 32.7%
17 | Cn1cc(C2=C(c3cn(C4CCN(Cc5ccccn5)CC4)c4ccccc34)C(=O)NC2=O)c2ccccc21 [Enzastaurin] + COCC[n+]1c2c(n(Cc3cnccn3)c1C)C(=O)c1ccccc1C2=O [YM155] (first compound 0.8 µM, partner dose 0.0004 µM) | 56.1% | 40.5% | 93.6% | 281% | 81.7% | 33%
18 | CN(c1ncccc1CNc1nc(Nc2ccc3c(c2)CC(=O)N3)ncc1C(F)(F)F)S(C)(=O)=O + C/C(O)=C(\C#N)C(=O)Nc1cc(Br)ccc1Br [LFM-A13] (first compound 0.08 µM, partner dose 2 µM) | 82.3% | 164% | 96.1% | 167% | 122% | 93.7%
19 | Cn1cnc2c(F)c(Nc3ccc(Br)cc3Cl)c(C(=O)NOCCO)cc21 [selumetinib] + C[C@]12O[C@H](C[C@]1(O)CO)n1c3ccccc3c3c4c(c5c6ccccc6n2c5c31)CNC4=O [Lestaurtinib] (first compound 0.015 µM, partner dose 0.004 µM) | 120% | 28.2% | 227% | 57.9% | 132% | 88.9%
20 | N#Cc1c(O)c2c(-c3ccc(-c4ccccc4O)cc3)csc2[nH]c1=O + O=C(Oc1ccc([N+](=O)[O-])cc1)N1CCC(C(O)(c2ccc3c(c2)OCO3)c2ccc3c(c2)OCO3)CC1 [JZL184] (first compound 2 µM, partner dose 1 µM) | 38.9% | 142% | 87.9% | 221% | 83.5% | 67.4%
21 | Cn1cc(C2=C(c3cn(C4CCN(Cc5ccccn5)CC4)c4ccccc34)C(=O)NC2=O)c2ccccc21 [Enzastaurin] + Nc1cccc2c1CN(C1CCC(=O)NC1=O)C2=O [lenalidomide] (first compound 0.8 µM, partner dose 1 µM) | 31.4% | 222% | 123% | 19.9% | 105% | 29.2%
22 | Cn1cc(C2=C(c3cn(C4CCN(Cc5ccccn5)CC4)c4ccccc34)C(=O)NC2=O)c2ccccc21 [Enzastaurin] + Cc1ccc(NC(=O)c2cccc(N(C)C)c2)cc1NC(=O)c1ccc(O)cc1 [ZM336372] (first compound 0.8 µM, partner dose 2 µM) | 105% | 127% | 309% | 67.3% | 88.3% | 189%
23 | N.N.[Cl][Pt][Cl] [cisplatin] + O=S(=O)(c1ccccc1)N(CC(F)(F)F)c1ccc(C(O)(C(F)(F)F)C(F)(F)F)cc1 [T0901317] (first compound 1.6 µM, partner dose 1.4 µM) | 77.1% | 7.54% | 186% | 39.3% | 92.2% | 39.8%
24 | C[C@]1(O)C[C@@H](c2nc(-c3ccc4ccc(-c5ccccc5)nc4c3)c3c(N)nccn32)C1 + N.N.[Cl][Pt][Cl] [cisplatin] (first compound 0.4 µM, partner dose 1.6 µM) | 114% | 85.5% | 115% | 21.6% | 83.1% | 99%
25 | C[As](C)SC[C@H](NC(=O)CC[C@H](N)C(=O)O)C(=O)NCC(=O)O [Darinaparsin] + O=C(CCCCCCC(=O)Nc1ccccc1)NO [vorinostat] (first compound 0.4 µM, partner dose 0.08 µM) | 50.4% | 55.7% | 75.4% | 176% | 91% | 89.5%

Given as tab-separated lines: part of the list above
Row	Structure (SMILES)	cleaved PARP positive nuclei fraction (WM115)	cleaved PARP positive nuclei fraction (WM1716)	cleaved PARP positive nuclei fraction (WM1745)	cleaved PARP positive nuclei fraction (WM3526)	cleaved PARP positive nuclei fraction (WM3619)	cleaved PARP positive nuclei fraction (WM451Lu)
7	CCN(CC)CCNC(=O)c1c(C)[nH]c(/C=C2\C(=O)Nc3ccc(F)cc32)c1C [sunitinib] + N.N.[Cl][Pt][Cl] [cisplatin] (first compound 0.4 µM, partner dose 1.6 µM)	58.1%	114%	97.5%	121%	77.4%	88.3%
23	N.N.[Cl][Pt][Cl] [cisplatin] + O=S(=O)(c1ccccc1)N(CC(F)(F)F)c1ccc(C(O)(C(F)(F)F)C(F)(F)F)cc1 [T0901317] (first compound 1.6 µM, partner dose 1.4 µM)	77.1%	7.54%	186%	39.3%	92.2%	39.8%
